## Library screen at single concentrations

The chains behind the UniProt entries cited, without tags or fusion partners. Residues count along the entry.
UniProt P9WPC5, whole entry: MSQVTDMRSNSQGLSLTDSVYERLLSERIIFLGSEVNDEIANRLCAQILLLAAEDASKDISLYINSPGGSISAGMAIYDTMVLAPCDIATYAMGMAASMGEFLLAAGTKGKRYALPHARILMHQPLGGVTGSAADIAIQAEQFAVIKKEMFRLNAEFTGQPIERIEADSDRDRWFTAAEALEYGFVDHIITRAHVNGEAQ
UniProt P9WPC3, whole entry partner: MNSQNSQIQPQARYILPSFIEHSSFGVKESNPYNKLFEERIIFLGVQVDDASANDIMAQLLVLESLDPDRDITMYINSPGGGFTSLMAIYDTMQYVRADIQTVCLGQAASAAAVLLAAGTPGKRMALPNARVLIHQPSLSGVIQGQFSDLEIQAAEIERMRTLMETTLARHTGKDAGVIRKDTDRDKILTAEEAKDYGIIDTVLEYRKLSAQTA
UniProt Q8IDJ8, 1-583: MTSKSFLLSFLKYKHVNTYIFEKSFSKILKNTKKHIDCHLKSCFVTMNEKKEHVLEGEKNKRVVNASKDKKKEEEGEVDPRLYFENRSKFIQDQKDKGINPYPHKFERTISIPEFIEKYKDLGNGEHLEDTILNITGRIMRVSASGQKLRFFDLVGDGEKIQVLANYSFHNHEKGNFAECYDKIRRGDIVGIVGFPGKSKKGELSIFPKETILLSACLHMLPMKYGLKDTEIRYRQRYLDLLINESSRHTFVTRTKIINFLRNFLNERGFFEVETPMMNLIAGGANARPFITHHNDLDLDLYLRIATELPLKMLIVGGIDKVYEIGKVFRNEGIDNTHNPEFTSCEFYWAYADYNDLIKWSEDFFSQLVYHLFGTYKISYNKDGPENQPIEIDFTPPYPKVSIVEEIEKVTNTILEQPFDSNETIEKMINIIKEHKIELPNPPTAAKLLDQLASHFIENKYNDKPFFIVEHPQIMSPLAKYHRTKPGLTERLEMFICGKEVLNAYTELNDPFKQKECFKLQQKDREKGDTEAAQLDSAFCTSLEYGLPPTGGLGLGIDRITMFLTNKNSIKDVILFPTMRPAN

Leishmania in macrophages: 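Cell assay of Leishmania donovani living inside macrophages; the read-out is not stated. Concentration: 30 µM. Higher reads as stronger inhibition (inferred: compounds with an IC50 in retests scored well above the rest). Of about 69,000 compounds tested this way, about 1,000 (1.5%) reached 50% or more in at least one test.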
ClpP1P2: 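Protease assay of ClpP1P2, read by the AMC dye that it sets free. Target: ClpP1P2, Mycobacterium tuberculosis (UniProt P9WPC5 and UniProt P9WPC3). Concentration: 50 µM. Higher reads as stronger inhibition, judged from the few compounds that gave an IC50. Most other retested compounds had strongly negative values. About 69,000 compounds were tested under these conditions; 0.015% (about 10) showed 50% or more at least once.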
Toxoplasma: 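Assay of Toxoplasma gondii numbers, read through their beta-galactosidase reporter with a colour substrate. Compounds at 10 µM. Higher reads as fewer parasites (inferred from which compounds were picked for retests). About 67,000 compounds were tested under these conditions; 0.38% (about 260) showed 50% or more at least once.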
PfKRS1: 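Lysine-tRNA ligase, Plasmodium falciparum 3D7 (UniProt Q8IDJ8). Enzyme assay of the cytosolic lysyl-tRNA synthetase in 384-well plates, read by luminescence. Concentration: 30 µM. Direction is inferred from only a few compounds that gave an IC50; most scored high, so higher reads as stronger inhibition. About 69,000 compounds were tested under these conditions; 0.071% (about 49) showed 50% or more at least once.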

Values are the deposited “Percent Effect”, in %. How 0% and 100% were set is not recorded. Most values in the screen are low, and negative values occur. Compounds were drawn at random from those tested, without regard to their results. Two or more numbers in one place are separate tests of the same structure; such repeats can differ widely. A dash means the value is not listed here; it may have been measured.

Compound	Leishmania in macrophages	ClpP1P2	Toxoplasma	PfKRS1
CC(C)Nc1ncnc2c1CCN(Cc1nccn1C)CC2.O=C(O)C(F)(F)F.O=C(O)C(F)(F)F	-2.222	-	-6.037	-
COc1cccc(-c2cc(NCCN(C)C)nc3[nH]ccc23)n1	-139	-127.4	-	2.842
CS(=O)(=O)NC[C@@H]1OC[C@H]2CN(Cc3ccccc3)CC[C@H]21	-	-5.102	-	3.365
CC(C)=CCN1C[C@H]2CC[C@@H]1CN(C(=O)c1c[nH]c(=O)c(Cl)c1)C2	-	-8.509	-	3.144
CC(=O)N1CCCC2(C1)CN(c1ncc(C)cn1)CCO2 (configuration not stated)	-	5.29	-	-0.9652
COc1cccc(CNC2CCc3ccc(C)cc32)n1 (configuration not stated)	-11.59	10.79	-4.234	4.178
COC(=O)c1ccc(C(=O)N2CCCC(Nc3ccc(F)cc3)C2)cc1 (configuration not stated)	9.373	-15.67	9.651	1.581
Cc1nn(C)c(N2CCOCC2)c1CNCC1CCS(=O)(=O)C1 (configuration not stated)	-5.037	0.5865	10.71	1.895
CC(C#N)CN(C)Cc1ccc(Cl)c2cccnc12 (configuration not stated)	2.264	-3.254	9.402	1.858
C[C@@H]1C[C@@H]2CCN(Cc3nccs3)C[C@H]2O1	-	-7.638	-	4.406
COC(=O)c1ccc(F)c(S(=O)(=O)Nc2ccc(C(N)=O)cc2)c1	-12.61	8.515	3.047	3.576
CCS(=O)(=O)N(C)C1CCN(C(=O)c2cc(C)cc(C)c2)CC1	8.245	0.8856	-0.1608	4.772
Cc1noc(C)c1CN(C)C(=O)NC1CCOCC1	-5.827	-11.11	-27.93	-0.9303
COc1ccc(-c2n[nH]cc2CN(C)CCc2scnc2C)c(F)c1	13.05	-5.031	-0.46	3.033
NC(=O)c1ccc(OCCCN2CCC3(CC2)OCCCC3O)cc1 (configuration not stated)	5.151	-5.561	-3.142	-4.527
CC(C)Nc1ncnc2c1CCN(c1cc(C(F)(F)F)ncn1)CC2	9.513	-4.092	0.7389	6.63
Cc1nc(C)n(CC2CN(CCc3ccccc3Cl)CCO2)n1 (configuration not stated)	-21.56	11.75	7.287	-3.111
CN(C)CCn1c2c(ccc1=O)CC(NCc1cccnc1)CC2 (configuration not stated)	-	-9.336	-	3.005
CC(C)c1ncc2c(n1)CN(Cc1nc(-c3ccccn3)no1)CC2	19.38	-23.93	2.55	2.417
O=S(=O)(Cc1ccc(F)cc1)N1CCN(CC(O)C2CC2)CC1 (configuration not stated)	41.39	-8.239	-2.036	1.808
Cc1csc(NC(=O)c2cnc(C3CCCN3)cn2)n1 (configuration not stated)	-	-8.439	-	0.3495
CO[C@H]1CCN(c2nnc(C)s2)C[C@@H]1Cc1cccc(C)c1.O=C(O)C(F)(F)F	5.713	-	-0.8621	-
COc1cccc(Cn2ncnc2CCSC)c1	10.09	-5.116	20.08	1.797
CC(C)=CCN1C[C@H]2CC[C@@H]1CN(S(=O)(=O)c1cccnc1)C2	-	-4.934	-	-0.08949
COCC1CN(Cc2cccnc2)Cc2nnn(CC3CC3)c21.O=C(O)C(F)(F)F.O=C(O)C(F)(F)F (configuration not stated)	-9.454	-	5.726	-
CCc1nc(CN(Cc2cccs2)CC2CCCO2)no1 (configuration not stated)	5.226	7.053	-14.79	7.089
CCNC(=O)[C@@H]1C[C@H](N)CN1C1CCN(c2ccccc2OC)CC1	0	-15.12	8.506	-0.621
CN1CC(=O)N(c2cnn(C)c2)CC12CCN(CC1CC1)C2.O=C(O)C(F)(F)F.O=C(O)C(F)(F)F (configuration not stated)	35.35	-	6.731	-
O=C(O)C(F)(F)F.O=C(O)C(F)(F)F.O=C(O)C(F)(F)F.[H][C@]12C[C@@H](Cn3cccn3)N(c3nccs3)[C@@]1([H])CCN(CC1CC1)C2	29.69	-	-3.914	-
Cn1cc(CNC2CCCOc3c(Cl)cccc32)cn1 (configuration not stated)	20.1	-2.45	1.59	3.724
CC(C)n1ccnc1Cn1ccc2ncccc2c1=O	1.792	5.713	-3.885	0.41
Cn1nc(N2CCCC(C(=O)Nc3nc4ccccc4s3)C2)ccc1=O (configuration not stated)	-10.01	-10.51	11.34	-0.4972
CC(C)(C)n1ncc2c(=O)n(CC(=O)NCc3ccccc3)cnc21	12.5 & 13.43	11.04	5.534	-0.01132
O=C(O)C(F)(F)F.O=C(O)C(F)(F)F.[H][C@@]12CN(Cc3cccs3)CCC[C@]1(C(=O)OCC)CN(C(C)C)C2	0.5543	-	-31.22	-
O=C(Nc1ccccc1)N1CCn2c(nnc2C2CCNCC2)C1	18.43	-7.674	-0.597	2.404
CC(C)c1nc(CN2CCOCC2)cs1	-11.44	1.523	-1.042	8.478
CC(C)C(=O)NCc1ccc(-n2cncn2)nc1	-16.6	5.958	1.737	-4.918
[H][C@@]12CCN(c3ccccn3)C[C@]1([H])[C@@H](CNC(=O)c1ccco1)OC2	21.98	-	-2.604	-
CC(C)NC(=O)[C@H]1C[C@@H]2[C@@H](C1)OCCN2Cc1cccs1	-	-5.714	-	6.095
Cc1noc(C)c1CN(C)C(=O)Nc1cnn(CC2CCCO2)c1 (configuration not stated)	0.6419	6.02	10.66	-1.836

4 of the entries, repeated:

CCS(=O)(=O)N(C)C1CCN(C(=O)c2cc(C)cc(C)c2)CC1 gave Leishmania in macrophages: 8.245%; ClpP1P2: 0.8856%; Toxoplasma: -0.1608%; PfKRS1: 4.772%.
COc1cccc(Cn2ncnc2CCSC)c1 gave Leishmania in macrophages: 10.09%; ClpP1P2: -5.116%; Toxoplasma: 20.08%; PfKRS1: 1.797%.
CC(C)n1ccnc1Cn1ccc2ncccc2c1=O gave Leishmania in macrophages: 1.792%; ClpP1P2: 5.713%; Toxoplasma: -3.885%; PfKRS1: 0.41%.
COC(=O)c1ccc(F)c(S(=O)(=O)Nc2ccc(C(N)=O)cc2)c1 gave Leishmania in macrophages: -12.61%; ClpP1P2: 8.515%; Toxoplasma: 3.047%; PfKRS1: 3.576%.

Measurements from “University of Dundee, Small-Polar-MMV Screening Library” (2021), ChEMBL document CHEMBL3988442.